15 compounds from PubChem BioAssay AID192 (DTP/NCI, 2004) can be followed below.

The list is a part of this screen's results and no random one: it gathers tests that were run many times, whatever their T/C, doses with no T/C, and many T/C values between a quarter and a half above the control. Further doses and runs are listed elsewhere. T/C is the treated group as % of the vehicle group. Some entries give survivors of the animals treated and no T/C: the source holds a T/C of zero for them, seemingly a mark for toxic or unscored doses. Some doses without a T/C left all or most animals alive at the check, yet need not have been tolerated: the source hardly ever lists a survival T/C far under the control, and the zero likely stands for such cases as well. Counts of survivors are from the toxicity check (mostly the fifth day) where no day follows; animals may have died later. Schedule codes are those of the source, taken here to give the interval after Q, in days (D) or hours (H), and the number of doses after X. Additions like (4×) stand for listed records that agree. Some entries hold several experiments; their values stand side by side, smallest first. For survival time, this PubChem deposit counts one and a half times the control or more as active, and values a quarter to a half above the control carry no call in these data; other NCI protocols may use other cut-offs. Some T/C values carry the count of animals alive at the toxicity check (mostly the fifth day); where none is given, no animal had died by that day.

In this test the test system is BDF1 mice, B16 melanoma ip, median survival T/C. Briefly: NCI In Vivo Anticancer Drug Screen. Data for tumor model B16 Melanoma (intraperitoneal) in B6D2F1 (BDF1) mice. The note with it: T/C endpoint: median survival time, higher T/C = longer survival. In outline: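 Transplantable tumor model; survival or tumor size measured; reported as T/C, treated over vehicle control.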

Where [1] appears, read: dose: 100.0 mg/kg/injection, schedule: Q04DX003 (ip), vehicle: Klucel (hydroxypropylcellulose) (HPC).
Where [2] appears, read: dose: 200.0 mg/kg/injection, schedule: Q01DX009 (ip), vehicle: saline with Tween-80.
Setting [3] is: dose: 400.0 mg/kg/injection, schedule: Q01DX009 (ip), vehicle: saline with Tween-80.
Where [4] appears, read: dose: 400.0 mg/kg/injection, schedule: Q01DX009 (ip), vehicle: Klucel (hydroxypropylcellulose) (HPC).

As for `Cc1c2ccncc2c(C)c2c1[nH]c1ccccc12`, the T/C is, setting by setting: (dose: 8.0 mg/kg/injection, schedule: Q01DX005 (ip), vehicle: saline with Tween-80) 148 % of control; (dose: 10.0 mg/kg/injection, schedule: Q01DX009 (ip), vehicle: saline) 136 and 147 % of control; (dose: 10.0 mg/kg/injection, schedule: Q01DX009 (ip), vehicle: water) 128 and 130 % of control; (dose: 12.5 mg/kg/injection, schedule: Q04DX003 (ip), vehicle: Klucel (hydroxypropylcellulose) (HPC)) 139 % of control; (dose: 20.0 mg/kg/injection, schedule: Q01DX009 (ip), vehicle: saline) 140 % of control; (dose: 25.0 mg/kg/injection, schedule: Q04DX003 (ip), vehicle: Klucel (hydroxypropylcellulose) (HPC)) 133 % of control. The T/C is 139 % of control (dose: 25.0 mg/kg/injection, schedule: Q04DX003 (ip), vehicle: distilled water + Tween-80); 147 % of control (dose: 40.0 mg/kg/injection, schedule: Q01DX009 (ip), vehicle: saline); 132 % of control (dose: 50.0 mg/kg/injection, schedule: Q04DX003 (ip), vehicle: distilled water + Tween-80, evaluated on day 45); 143 % of control (dose: 50.0 mg/kg/injection, schedule: Q04DX003 (ip), vehicle: distilled water + Tween-80, evaluated on day 60); 142 % of control (dose: 100.0 mg/kg/injection, schedule: Q04DX003 (ip), vehicle: distilled water + Tween-80). Further, the survivor count (dose: 20.0 mg/kg/injection, schedule: Q01DX009 (ip), vehicle: water) is 8 of 10 and 10 of 10; the survivor count (dose: 32.0 mg/kg/injection, schedule: Q01DX005 (iv), vehicle: saline with Tween-80) was 0 of 10; the survivor count (dose: 40.0 mg/kg/injection, schedule: Q01DX009 (ip), vehicle: water) is 8 of 10 and 10 of 10; the survivor count (dose: 64.0 mg/kg/injection, schedule: Q01DX005 (ip), vehicle: saline with Tween-80) is on record as 9 of 10; the survivor count (dose: 64.0 mg/kg/injection, schedule: Q01DX005 (iv), vehicle: saline with Tween-80) is 0 of 10; the survivor count (dose: 80.0 mg/kg/injection, schedule: Q01DX009 (ip), vehicle: saline) was 6 of 6. The survivor count was 6 of 10 (dose: 80.0 mg/kg/injection, schedule: Q01DX009 (ip), vehicle: water); 10 of 10 under setting [1]; 10 of 10 (dose: 128.0 mg/kg/injection, schedule: Q01DX005 (ip), vehicle: saline with Tween-80); 0 of 10 (dose: 128.0 mg/kg/injection, schedule: Q01DX005 (iv), vehicle: saline with Tween-80); 10 of 10 (dose: 128.0 mg/kg/injection, schedule: Q01DX005 (oral), vehicle: saline with Tween-80); 10 of 10 (dose: 200.0 mg/kg/injection, schedule: Q04DX003 (ip), vehicle: Klucel (hydroxypropylcellulose) (HPC)). The survivor count is 10 of 10 (2×) (dose: 200.0 mg/kg/injection, schedule: Q04DX003 (ip), vehicle: distilled water + Tween-80) and 10 of 10 (dose: 256.0 mg/kg/injection, schedule: Q01DX005 (oral), vehicle: saline with Tween-80).
Regarding `NC(=O)c1ccc(-c2c3ccccc3cc3c2ccc2ccccc23)cc1`, the survivor count under setting [2] is 10 of 10 and the survivor count under setting [3] is 10 of 10.
`CCN(CC)CCOC(=O)Cc1cccc2c(=O)cc(-c3ccccc3)oc12`: where the note is “dose: 100.0 mg/kg/injection, schedule: Q01DX009 (ip), vehicle: saline”, the T/C was 135 % of control. Under “dose: 200.0 mg/kg/injection, schedule: Q01DX009 (ip), vehicle: saline”, the survivor count is reported as 9 of 10.
In the case of `CCN(CC)c1nc(N(CC)CC)nc(N(CC)CC)n1`, the survivor count (dose: 100.0 mg/kg/injection, schedule: Q01DX009 (ip), vehicle: saline with Tween-80) was 10 of 10; the survivor count under setting [2] is on record as 10 of 10; the survivor count under setting [3] is listed as 2 of 10.
Take `CSc1ncnc2c1ncn2C1OC(CO)C(O)C1O` (stereo not given): the survivor count by setting is: (dose: 30.0 mg/kg/injection, schedule: Q01DX009 (ip), vehicle: saline with Tween-80) 6 of 6; (dose: 60.0 mg/kg/injection, schedule: Q01DX009 (ip), vehicle: saline with Tween-80) 6 of 6.
As for `COc1ccc(C(=O)C(C)C(O)C(=O)O)c(O)c1C` (stereo not given), the survivor count was 10 of 10 (dose: 200.0 mg/kg/injection, schedule: Q01DX009 (ip), vehicle: other) and 8 of 10 (dose: 400.0 mg/kg/injection, schedule: Q01DX009 (ip), vehicle: other).
With `CN(C)CCN(Cc1ccccc1)c1ccccc1`, the survivor count under setting [1] is listed as 10 of 10.
Regarding `Cc1ccc(NC(=O)Nc2ccc(C)c(NC(=O)Nc3ccc(C)cc3C)c2)c(C)c1`, the survivor count under setting [4] is listed as 10 of 10.
Regarding `CCCCCCC(O)C/C=C\CCCCCCCCO` (stereo not given), the T/C reads like this: (dose: 75.0 mg/kg/injection, schedule: Q01DX009 (ip), vehicle: saline) 127 % of control; (dose: 150.0 mg/kg/injection, schedule: Q01DX009 (ip), vehicle: saline) 125 % of control. The survivor count (dose: 300.0 mg/kg/injection, schedule: Q01DX009 (ip), vehicle: saline) is 8 of 10.
On to `CCN(CC)C1CC(O[C@H]2C[C@](O)(C(C)=O)Cc3c(O)c4c(c(O)c32)C(=O)c2c(OC)cccc2C4=O)OC(C)C1O` (stereo not given in full), for which the T/C runs as follows: (dose: 1.0 mg/kg/injection, schedule: Q01DX009 (ip), vehicle: water) 129 % of control; (dose: 2.0 mg/kg/injection, schedule: Q01DX009 (ip), vehicle: water) 127 % of control [9 of 10 alive]; (dose: 4.0 mg/kg/injection, schedule: Q01DX009 (ip), vehicle: water) 138 % of control [9 of 10 alive]. The survivor count is on record as 10 of 10 (dose: 8.0 mg/kg/injection, schedule: Q01DX009 (ip), vehicle: water) and 10 of 10 (dose: 16.0 mg/kg/injection, schedule: Q01DX009 (ip), vehicle: water).
Regarding `ClC1=C(Cl)C(Cl)(Cl)C(Cl)(Cl)C1(Cl)Cl`, the survivor count reads like this: (dose: 200.0 mg/kg/injection, schedule: Q01DX009 (ip), vehicle: Klucel (hydroxypropylcellulose) (HPC)) 8 of 10; under setting [4], 8 of 10.
As to `O=C(O)C(/C=C/c1ccccc1)c1ccccc1` (stereo not given), the survivor count under setting [2] was 8 of 10.
In the case of `O=C(O)COc1ccc(OCC(=O)O)cc1`, the survivor count reads like this: (dose: 0.37 mg/kg/injection, schedule: Q01DX009 (ip), vehicle: Klucel (hydroxypropylcellulose) (HPC)) 10 of 10; (dose: 3.0 mg/kg/injection, schedule: Q01DX009 (ip), vehicle: Klucel (hydroxypropylcellulose) (HPC)) 10 of 10; (dose: 6.0 mg/kg/injection, schedule: Q01DX009 (ip), vehicle: Klucel (hydroxypropylcellulose) (HPC)) 9 of 9; (dose: 12.0 mg/kg/injection, schedule: Q01DX009 (ip), vehicle: Klucel (hydroxypropylcellulose) (HPC)) 10 of 10.
Turning to `COc1cc2cc3c4cc(OC)c(OC)cc4cc[n+]3c(C)c2cc1OC`, the survivor count (dose: 50.0 mg/kg/injection, schedule: Q01DX009 (ip), vehicle: saline sonified) is 6 of 6; the survivor count (dose: 100.0 mg/kg/injection, schedule: Q01DX009 (ip), vehicle: saline sonified) was 6 of 6; the survivor count (dose: 200.0 mg/kg/injection, schedule: Q01DX009 (ip), vehicle: saline sonified) is recorded as 6 of 6.
With `O=C1C=C(C2OC(CO)C(O)C2O)C(=O)N1` (stereo not given), the survivor count runs as follows: (dose: 3.13 mg/kg/injection, schedule: Q01DX009 (ip), vehicle: Klucel (hydroxypropylcellulose) (HPC)) 10 of 10; (dose: 25.0 mg/kg/injection, schedule: Q01DX009 (ip), vehicle: Klucel (hydroxypropylcellulose) (HPC)) 1 of 10; (dose: 50.0 mg/kg/injection, schedule: Q01DX009 (ip), vehicle: Klucel (hydroxypropylcellulose) (HPC)) 0 of 10; (dose: 100.0 mg/kg/injection, schedule: Q01DX009 (ip), vehicle: Klucel (hydroxypropylcellulose) (HPC)) 0 of 10.
